Assay results from the supplement of paper PMC10849652.
The other results are listed elsewhere or left out.

The chains behind the UniProt entries cited, without tags or fusion partners. Where a name states a change or a piece, a line headed by the entry shows the natural chain unless it says otherwise.
UniProt P13674: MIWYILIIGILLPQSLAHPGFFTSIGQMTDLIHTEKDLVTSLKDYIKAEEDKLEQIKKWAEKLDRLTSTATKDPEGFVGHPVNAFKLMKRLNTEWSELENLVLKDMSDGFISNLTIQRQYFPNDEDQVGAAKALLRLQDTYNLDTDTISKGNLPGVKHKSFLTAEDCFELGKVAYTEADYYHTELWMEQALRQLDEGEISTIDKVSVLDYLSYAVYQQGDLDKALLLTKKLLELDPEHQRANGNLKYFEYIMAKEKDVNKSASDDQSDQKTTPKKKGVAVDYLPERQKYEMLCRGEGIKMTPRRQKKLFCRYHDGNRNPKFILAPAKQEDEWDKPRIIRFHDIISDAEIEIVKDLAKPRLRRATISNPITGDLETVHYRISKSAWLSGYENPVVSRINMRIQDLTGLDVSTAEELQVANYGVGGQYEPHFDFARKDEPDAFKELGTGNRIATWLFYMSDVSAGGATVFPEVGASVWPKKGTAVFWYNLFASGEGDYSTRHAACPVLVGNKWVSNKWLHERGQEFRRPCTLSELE
UniProt Q15102: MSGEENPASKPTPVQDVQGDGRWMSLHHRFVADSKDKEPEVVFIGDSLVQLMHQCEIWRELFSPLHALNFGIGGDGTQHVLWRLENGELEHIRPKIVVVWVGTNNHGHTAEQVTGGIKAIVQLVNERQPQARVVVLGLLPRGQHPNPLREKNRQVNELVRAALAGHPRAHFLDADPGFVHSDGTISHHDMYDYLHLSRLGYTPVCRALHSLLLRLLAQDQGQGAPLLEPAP
UniProt Q969R2: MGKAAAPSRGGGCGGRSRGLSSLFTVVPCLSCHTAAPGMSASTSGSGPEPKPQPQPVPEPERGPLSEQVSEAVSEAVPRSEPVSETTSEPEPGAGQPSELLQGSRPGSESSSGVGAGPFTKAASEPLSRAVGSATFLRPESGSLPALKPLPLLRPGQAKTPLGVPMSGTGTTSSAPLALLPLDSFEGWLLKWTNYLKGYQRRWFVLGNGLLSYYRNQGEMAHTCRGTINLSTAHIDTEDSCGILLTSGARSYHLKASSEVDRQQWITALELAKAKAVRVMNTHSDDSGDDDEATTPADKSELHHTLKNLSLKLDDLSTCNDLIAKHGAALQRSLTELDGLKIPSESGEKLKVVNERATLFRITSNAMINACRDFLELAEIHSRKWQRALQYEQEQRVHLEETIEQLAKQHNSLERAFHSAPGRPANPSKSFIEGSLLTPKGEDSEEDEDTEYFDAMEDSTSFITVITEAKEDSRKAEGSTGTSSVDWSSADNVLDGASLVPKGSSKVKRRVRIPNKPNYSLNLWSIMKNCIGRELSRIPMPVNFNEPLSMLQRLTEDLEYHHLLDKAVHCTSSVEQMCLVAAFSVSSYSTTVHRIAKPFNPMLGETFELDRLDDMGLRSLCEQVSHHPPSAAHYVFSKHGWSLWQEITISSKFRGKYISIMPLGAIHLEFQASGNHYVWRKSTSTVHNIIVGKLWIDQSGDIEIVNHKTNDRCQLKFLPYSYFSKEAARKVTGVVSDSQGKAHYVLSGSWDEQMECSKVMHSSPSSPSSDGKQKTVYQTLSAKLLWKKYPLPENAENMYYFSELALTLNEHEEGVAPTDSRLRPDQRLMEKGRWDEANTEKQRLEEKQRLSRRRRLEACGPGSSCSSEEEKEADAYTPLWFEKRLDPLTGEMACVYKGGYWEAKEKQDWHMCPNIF
UniProt O43252: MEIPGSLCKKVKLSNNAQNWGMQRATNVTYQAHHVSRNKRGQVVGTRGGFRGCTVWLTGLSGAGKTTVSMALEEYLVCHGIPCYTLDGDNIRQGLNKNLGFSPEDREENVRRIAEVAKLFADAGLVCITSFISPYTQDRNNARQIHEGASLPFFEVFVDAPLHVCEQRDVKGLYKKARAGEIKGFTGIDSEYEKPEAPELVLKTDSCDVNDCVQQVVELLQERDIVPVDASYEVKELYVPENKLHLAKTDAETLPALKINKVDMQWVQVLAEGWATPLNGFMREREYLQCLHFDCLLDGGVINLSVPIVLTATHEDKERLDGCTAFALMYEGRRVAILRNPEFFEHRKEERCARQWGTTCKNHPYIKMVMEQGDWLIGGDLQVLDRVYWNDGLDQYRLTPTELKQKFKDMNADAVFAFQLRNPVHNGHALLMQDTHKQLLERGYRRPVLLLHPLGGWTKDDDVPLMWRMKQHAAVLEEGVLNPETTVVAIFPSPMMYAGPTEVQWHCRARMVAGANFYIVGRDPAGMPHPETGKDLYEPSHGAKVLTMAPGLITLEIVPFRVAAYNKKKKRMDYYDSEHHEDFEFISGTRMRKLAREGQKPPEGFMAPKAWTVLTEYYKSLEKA
UniProt Q9BYG5: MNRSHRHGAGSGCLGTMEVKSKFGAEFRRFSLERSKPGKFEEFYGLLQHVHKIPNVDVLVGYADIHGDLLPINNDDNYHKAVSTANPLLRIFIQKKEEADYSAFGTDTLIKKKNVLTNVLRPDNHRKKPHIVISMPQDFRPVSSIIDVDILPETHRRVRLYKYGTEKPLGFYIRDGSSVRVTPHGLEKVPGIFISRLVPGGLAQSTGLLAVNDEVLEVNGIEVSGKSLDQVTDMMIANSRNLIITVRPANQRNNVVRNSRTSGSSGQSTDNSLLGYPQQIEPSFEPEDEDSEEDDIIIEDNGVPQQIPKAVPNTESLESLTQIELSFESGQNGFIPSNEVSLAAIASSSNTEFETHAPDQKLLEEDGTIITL
UniProt Q13177, whole entry, looked up: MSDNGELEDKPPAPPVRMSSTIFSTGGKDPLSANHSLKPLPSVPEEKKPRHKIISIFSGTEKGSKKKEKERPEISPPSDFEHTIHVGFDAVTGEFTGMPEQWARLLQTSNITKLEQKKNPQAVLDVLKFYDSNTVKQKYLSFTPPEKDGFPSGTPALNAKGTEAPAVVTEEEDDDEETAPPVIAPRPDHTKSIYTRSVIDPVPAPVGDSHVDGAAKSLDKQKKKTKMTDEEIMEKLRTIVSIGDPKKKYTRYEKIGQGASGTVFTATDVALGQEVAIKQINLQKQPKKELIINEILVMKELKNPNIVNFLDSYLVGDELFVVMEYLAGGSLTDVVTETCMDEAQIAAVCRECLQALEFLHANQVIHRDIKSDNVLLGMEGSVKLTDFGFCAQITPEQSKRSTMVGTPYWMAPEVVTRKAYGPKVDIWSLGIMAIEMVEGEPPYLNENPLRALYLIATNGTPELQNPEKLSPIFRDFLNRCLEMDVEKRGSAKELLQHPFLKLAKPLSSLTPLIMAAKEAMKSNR
UniProt Q96SU4: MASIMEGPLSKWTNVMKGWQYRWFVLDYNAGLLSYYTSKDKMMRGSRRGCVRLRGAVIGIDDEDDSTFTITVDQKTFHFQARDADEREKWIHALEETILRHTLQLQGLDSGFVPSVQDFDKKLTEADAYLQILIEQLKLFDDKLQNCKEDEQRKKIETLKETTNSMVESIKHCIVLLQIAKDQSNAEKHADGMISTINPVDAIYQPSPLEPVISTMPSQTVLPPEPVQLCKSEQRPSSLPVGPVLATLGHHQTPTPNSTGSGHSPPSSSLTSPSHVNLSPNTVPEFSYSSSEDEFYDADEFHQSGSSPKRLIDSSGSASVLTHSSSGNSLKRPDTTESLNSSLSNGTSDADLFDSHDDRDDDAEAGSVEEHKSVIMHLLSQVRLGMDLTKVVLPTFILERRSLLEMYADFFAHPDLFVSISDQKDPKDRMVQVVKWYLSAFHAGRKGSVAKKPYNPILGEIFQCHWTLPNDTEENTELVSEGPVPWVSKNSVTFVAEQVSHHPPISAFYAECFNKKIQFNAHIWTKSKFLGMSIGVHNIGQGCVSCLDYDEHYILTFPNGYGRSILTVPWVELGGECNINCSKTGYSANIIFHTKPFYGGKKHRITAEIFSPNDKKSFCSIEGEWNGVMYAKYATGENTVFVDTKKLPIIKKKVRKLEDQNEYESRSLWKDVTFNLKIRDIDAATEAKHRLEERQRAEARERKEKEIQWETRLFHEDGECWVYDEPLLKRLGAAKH
UniProt Q9H074: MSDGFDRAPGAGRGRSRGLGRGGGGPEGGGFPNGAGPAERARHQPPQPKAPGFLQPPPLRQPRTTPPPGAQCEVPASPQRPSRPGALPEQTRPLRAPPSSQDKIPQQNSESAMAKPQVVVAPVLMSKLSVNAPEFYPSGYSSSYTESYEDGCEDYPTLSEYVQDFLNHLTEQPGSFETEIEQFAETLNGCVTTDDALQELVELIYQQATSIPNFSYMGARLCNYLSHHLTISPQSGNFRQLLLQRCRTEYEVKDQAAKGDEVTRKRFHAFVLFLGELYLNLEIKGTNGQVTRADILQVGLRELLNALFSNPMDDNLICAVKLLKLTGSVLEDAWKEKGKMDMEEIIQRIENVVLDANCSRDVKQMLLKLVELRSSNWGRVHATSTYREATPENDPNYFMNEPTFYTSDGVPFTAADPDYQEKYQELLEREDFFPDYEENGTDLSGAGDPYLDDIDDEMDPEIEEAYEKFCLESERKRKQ
UniProt Q96G74: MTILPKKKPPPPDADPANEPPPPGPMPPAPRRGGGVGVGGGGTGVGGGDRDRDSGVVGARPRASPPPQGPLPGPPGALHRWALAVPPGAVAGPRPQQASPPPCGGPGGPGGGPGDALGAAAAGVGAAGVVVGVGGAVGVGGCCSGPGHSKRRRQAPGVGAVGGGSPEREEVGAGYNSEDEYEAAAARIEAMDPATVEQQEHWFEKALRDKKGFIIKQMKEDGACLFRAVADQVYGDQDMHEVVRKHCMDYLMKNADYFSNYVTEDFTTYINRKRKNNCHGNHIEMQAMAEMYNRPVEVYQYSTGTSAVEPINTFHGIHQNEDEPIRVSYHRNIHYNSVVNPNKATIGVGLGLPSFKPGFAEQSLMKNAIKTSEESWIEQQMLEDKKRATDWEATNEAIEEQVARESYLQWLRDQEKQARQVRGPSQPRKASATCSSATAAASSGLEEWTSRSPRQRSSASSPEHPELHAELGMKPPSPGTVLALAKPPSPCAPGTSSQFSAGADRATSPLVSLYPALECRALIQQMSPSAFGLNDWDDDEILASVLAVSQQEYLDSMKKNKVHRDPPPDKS
UniProt P51003: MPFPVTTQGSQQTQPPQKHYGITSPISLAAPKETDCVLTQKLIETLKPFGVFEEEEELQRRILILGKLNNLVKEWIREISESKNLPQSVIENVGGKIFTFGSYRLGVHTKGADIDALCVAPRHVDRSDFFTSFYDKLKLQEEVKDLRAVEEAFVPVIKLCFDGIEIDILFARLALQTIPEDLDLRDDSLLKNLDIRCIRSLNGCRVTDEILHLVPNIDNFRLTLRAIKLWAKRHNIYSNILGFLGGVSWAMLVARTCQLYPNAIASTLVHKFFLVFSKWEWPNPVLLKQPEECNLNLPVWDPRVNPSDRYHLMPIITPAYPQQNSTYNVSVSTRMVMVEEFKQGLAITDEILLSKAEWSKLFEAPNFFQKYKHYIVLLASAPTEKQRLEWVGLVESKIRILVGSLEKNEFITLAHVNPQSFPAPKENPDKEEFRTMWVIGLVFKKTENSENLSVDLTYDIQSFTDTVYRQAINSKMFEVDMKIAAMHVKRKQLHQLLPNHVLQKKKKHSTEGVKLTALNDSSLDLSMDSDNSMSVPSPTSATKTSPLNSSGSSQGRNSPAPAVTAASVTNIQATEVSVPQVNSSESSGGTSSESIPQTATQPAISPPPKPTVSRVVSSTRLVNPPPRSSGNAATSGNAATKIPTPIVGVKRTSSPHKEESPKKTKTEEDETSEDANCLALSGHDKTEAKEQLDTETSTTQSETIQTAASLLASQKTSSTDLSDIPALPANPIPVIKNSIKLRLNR
UniProt Q9BRP4: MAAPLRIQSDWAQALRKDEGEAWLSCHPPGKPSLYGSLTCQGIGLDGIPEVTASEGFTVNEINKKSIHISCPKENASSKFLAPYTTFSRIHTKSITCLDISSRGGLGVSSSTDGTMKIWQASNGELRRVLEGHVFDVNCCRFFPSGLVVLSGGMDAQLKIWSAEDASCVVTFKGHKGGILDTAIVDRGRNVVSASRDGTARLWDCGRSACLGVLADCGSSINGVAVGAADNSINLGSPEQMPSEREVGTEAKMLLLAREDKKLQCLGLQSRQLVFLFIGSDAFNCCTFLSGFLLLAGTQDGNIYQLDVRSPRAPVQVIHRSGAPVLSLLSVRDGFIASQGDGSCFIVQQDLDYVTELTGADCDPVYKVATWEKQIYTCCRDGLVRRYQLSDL
UniProt Q9H300: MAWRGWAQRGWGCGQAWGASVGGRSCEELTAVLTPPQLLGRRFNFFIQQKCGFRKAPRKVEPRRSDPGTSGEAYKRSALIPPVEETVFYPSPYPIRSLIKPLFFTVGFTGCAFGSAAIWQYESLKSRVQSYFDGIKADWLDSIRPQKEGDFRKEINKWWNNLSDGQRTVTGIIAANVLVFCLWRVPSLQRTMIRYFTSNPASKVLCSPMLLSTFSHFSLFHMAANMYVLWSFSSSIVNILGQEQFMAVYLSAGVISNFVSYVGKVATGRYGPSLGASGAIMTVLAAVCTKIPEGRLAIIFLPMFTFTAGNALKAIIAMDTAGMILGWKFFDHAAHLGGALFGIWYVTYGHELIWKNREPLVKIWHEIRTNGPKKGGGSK

Tests used:
Assay in all cases: log2 fold change, soluble protein after heating vs DMSO (PISA); higher = thermal stabilisation; K562 lysate, 10 uM; active = over 0.2 and 3.5 SD of the protein, either way, in both replicates (recomputed)
ibrutinib = compound: C=CC(=O)N1CCC[C@@H](n2nc(-c3ccc(Oc4ccccc4)cc3)c3c(N)ncnc32)C1 [ibrutinib]
Outline: (§1)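 Following dounce homogenisation of K562 pellets in PBS pH 7.4 with 1 mM MgCl2, crude extract at 1 mg/mL protein was incubated for 30 min with 10 μM compound. Aliquots were then heated for 3 min over 48°C-58°C and pooled, NP-40 was added to 0.5% at 4°C, and soluble protein was recovered as the supernatant at 21,000xg for 90 min. Channel-sum-equalised TMTpro 16plex LC-MS/MS quantified this protein. Each value, from duplicates, is a log-two fold change in thermal stability relative to solvent controls.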

[1] = compound: CC(=O)c1cnc2ccc(-c3cc(Cl)c(O)c(Cl)c3)nc2c1N[C@H]1CC[C@H](CN(C)C)CC1
Outline: as §1

ralimetinib = compound: CC(C)(C)Cn1c(N)nc2ccc(-c3[nH]c(C(C)(C)C)nc3-c3ccc(F)cc3)nc21 [ralimetinib]
Outline: as §1

[2] = compound: CC(C)(O)CC(=O)NCCn1ccc2ncnc(Nc3ccc(Oc4cccc(C(F)(F)F)c4)c(Cl)c3)c21
Outline: as §1

[3] = compound: CC(C)C1=C2N=C(C=C(N2N=C1)NCC3=CC=CC=C3)NCCCCCCN
Outline: as §1

[4] = compound: CC1=C(C(CC(=O)N1)C2=CC=C(C=C2)C(F)(F)F)C(=O)NC3=C(C=C4C(=C3)C=NN4)F
Outline: as §1

[5] = compound: CC1=C(C2=C(C=C1)C(=O)C3=CC=CC=C3N2CCCN)C
Outline: as §1

[6] = compound: CC1=C(C=C(C=C1)NC(=O)C2=CC(=CC=C2)C(C)(C)C#N)NC3=CC4=C(C=C3)N=CN(C4=O)C
Outline: as §1

[7] = compound: CC1=C(C=C(C=C1)NC(=O)C2=CC(=CC=C2)N(C)C)NC(=O)C3=CC=C(C=C3)O
Outline: as §1

[8] = compound: CC1=CC=C(C=C1)SC2=C3C=C(SC3=CN=C2)C(=O)N
Outline: as §1

vemurafenib = compound: CCCS(=O)(=O)Nc1ccc(F)c(C(=O)c2c[nH]c3ncc(-c4ccc(Cl)cc4)cc23)c1F [vemurafenib]
Outline: as §1

[9] = compound: CCCS(=O)(=O)Nc1ccc(F)c(C(=O)c2c[nH]c3ncc(Cl)cc23)c1F
Outline: as §1

barasertib = compound: CCN(CCCOc1ccc2c(Nc3cc(CC(=O)Nc4cccc(F)c4)[nH]n3)ncnc2c1)CCOP(=O)(O)O [barasertib]
Outline: as §1

[10] = compound: CC[C@@H]1C(=O)N(C)c2cnc(Nc3ccc(C(=O)NC4CCN(C)CC4)cc3OC)nc2N1C1CCCC1
Outline: as §1

volasertib = compound: CC[C@@H]1C(=O)N(C)c2cnc(Nc3ccc(C(=O)N[C@H]4CC[C@H](N5CCN(CC6CC6)CC5)CC4)cc3OC)nc2N1C(C)C [volasertib]
Outline: as §1

[11] = compound: CCn1c(C(=O)N(C2CC2)C2CC2)cc2c3c(ncn3C)c(Nc3cc(C)n(C)n3)nc21
Outline: as §1

[12] = compound: CCn1cc(-c2ccnc3[nH]c(-c4cccc(CN(C)C)c4)cc23)c(-c2ccc(NC(=O)N(C)C)cc2)n1
Outline: as §1

[13] = compound: CN1CCC(CNc2ccc3ncc(-c4cccc(OC(F)(F)F)c4)n3n2)CC1
Outline: as §1

saracatinib = compound: CN1CCN(CCOc2cc(OC3CCOCC3)c3c(Nc4c(Cl)ccc5c4OCO5)ncnc3c2)CC1 [saracatinib]
Outline: as §1

sotrastaurin = compound: CN1CCN(c2nc(C3=C(c4c[nH]c5ccccc45)C(=O)NC3=O)c3ccccc3n2)CC1 [sotrastaurin]
Outline: as §1

Target	log2 fold change (ibrutinib)	log2 fold change [1]	log2 fold change (ralimetinib)	log2 fold change [2]	log2 fold change [3]	log2 fold change [4]	log2 fold change [5]	log2 fold change [6]	log2 fold change [7]	log2 fold change [8]	log2 fold change (vemurafenib)	log2 fold change [9]	log2 fold change (barasertib)	log2 fold change [10]	log2 fold change (volasertib)	log2 fold change [11]	log2 fold change [12]	log2 fold change [13]	log2 fold change (saracatinib)	log2 fold change (sotrastaurin)
OIP5 (UniProt O43482)	inactive: 0.165	inactive: 0.02	inactive: -0.021	inactive: -0.026	inactive: 0.005	inactive: -0.084	inactive: 0.041	inactive: 0.064	inactive: 0.008	inactive: -0.002	inactive: -0.038	inactive: 0.002	inactive: -0.051	inactive: 0.022	inactive: 0.045	inactive: -0.035	inactive: -0.084	inactive: 0.051	inactive: -0.024	inactive: 0.101
OTUD7B (UniProt Q6GQQ9)	inactive: -0.008	inactive: 0.004	inactive: 0.026	inactive: 0.005	inactive: -0.034	inactive: -0.011	inactive: -0.019	active: 0.239	inactive: 0	inactive: 0.047	inactive: 0.033	inactive: 0.011	inactive: 0.116	inactive: -0.029	inactive: -0.049	inactive: 0.018	inactive: 0.017	inactive: -0.042	inactive: 0.015	inactive: -0.011
P4HA1 (UniProt P13674)	inactive: 0.004	inactive: -0.009	inactive: 0.008	inactive: 0.023	inactive: 0.011	inactive: -0.024	inactive: 0.003	inactive: -0.001	inactive: -0.006	inactive: 0.005	inactive: 0.019	inactive: 0.016	inactive: 0.019	inactive: -0.006	inactive: -0.019	inactive: -0.005	inactive: 0.014	inactive: 0	inactive: 0.017	inactive: -0.007
PAFAH1B3 (UniProt Q15102)	inactive: 0.073	inactive: -0.004	inactive: 0.003	inactive: -0.01	inactive: 0.015	inactive: -0.026	inactive: 0.014	inactive: -0.002	inactive: 0.02	inactive: 0.006	inactive: -0.008	inactive: 0.002	inactive: 0.119	inactive: -0.061	inactive: -0.067	inactive: 0.031	inactive: -0.04	inactive: -0.021	inactive: 0.013	inactive: -0.009
OSBP2 (UniProt Q969R2)	inactive: 0	inactive: 0.077	inactive: 0.036	inactive: -0.103	inactive: -0.223	inactive: -0.006	inactive: 0.023	inactive: 0.051	inactive: -0.011	inactive: 0	inactive: -0.056	inactive: -0.014	inactive: -0.055	inactive: 0.062	inactive: -0.077	inactive: -0.001	active: -0.881	inactive: 0.279	inactive: 0.068	inactive: 0.104
PANX1 (UniProt Q96RD7)	inactive: 0.033	inactive: 0	inactive: 0.025	inactive: -0.015	inactive: -0.052	inactive: -0.07	inactive: 0.006	inactive: -0.03	inactive: 0.025	inactive: -0.033	inactive: 0.018	inactive: -0.022	inactive: -0.022	inactive: -0.003	inactive: 0.017	inactive: 0.022	inactive: -0.036	inactive: -0.006	inactive: -0.009	inactive: 0.068
PAPSS1 (UniProt O43252)	inactive: 0.021	inactive: 0.001	inactive: 0.008	inactive: 0.005	inactive: -0.008	inactive: -0.022	inactive: -0.002	inactive: 0.005	inactive: -0.015	inactive: -0.007	inactive: -0.024	inactive: -0.007	inactive: -0.004	inactive: -0.055	inactive: -0.002	inactive: -0.007	inactive: -0.092	inactive: 0.046	inactive: -0.039	inactive: 0.009
PARD6B (UniProt Q9BYG5)	inactive: -0.011	inactive: -0.008	inactive: 0.007	inactive: -0.006	inactive: -0.003	inactive: 0.023	inactive: 0.009	inactive: 0.058	inactive: -0.02	inactive: 0.016	inactive: -0.001	inactive: -0.03	inactive: -0.045	inactive: 0.001	inactive: -0.035	inactive: 0.023	inactive: -0.09	inactive: -0.033	inactive: 0.036	inactive: -0.061
PAK2 (UniProt Q13177)	inactive: -0.007	inactive: -0.001	inactive: -0.033	inactive: 0.012	inactive: -0.003	inactive: -0.026	inactive: -0.004	inactive: -0.01	inactive: -0.006	inactive: 0.002	inactive: -0.005	inactive: -0.016	inactive: -0.03	inactive: 0.025	inactive: 0.016	inactive: -0.006	inactive: 0.062	inactive: -0.024	inactive: 0.008	inactive: 0.022
OSBPL9 isoform 2 (UniProt Q96SU4)	inactive: -0.015	inactive: 0.01	inactive: -0.036	inactive: -0.006	inactive: -0.03	inactive: -0.012	inactive: 0.015	inactive: -0.006	inactive: 0.021	inactive: -0.049	inactive: 0.004	inactive: 0.047	inactive: 0.067	inactive: 0.011	inactive: -0.062	inactive: 0.08	inactive: -0.067	inactive: 0.043	inactive: 0.009	inactive: 0
PAIP1 (UniProt Q9H074)	inactive: 0.005	inactive: 0.001	inactive: -0.003	inactive: 0.012	inactive: -0.006	inactive: -0.004	inactive: 0.004	inactive: 0.001	inactive: -0.009	inactive: -0.021	inactive: -0.036	inactive: 0.015	inactive: -0.022	inactive: 0.004	inactive: 0.016	inactive: 0.014	inactive: 0.017	inactive: 0.056	inactive: -0.013	inactive: -0.029
OCRL (UniProt Q01968)	inactive: 0.051	inactive: -0.038	inactive: -0.016	inactive: 0.016	inactive: 0.044	inactive: 0.013	inactive: 0.036	inactive: 0.022	inactive: -0.002	inactive: 0.033	inactive: 0.168	inactive: 0.014	inactive: 0.04	inactive: 0.018	inactive: -0.057	inactive: -0.032	inactive: -0.074	inactive: 0.049	inactive: 0.027	inactive: 0.019
OTUD5 isoform 5 (UniProt Q96G74)	inactive: 0.007	inactive: -0.014	inactive: -0.018	inactive: -0.038	inactive: -0.047	inactive: 0.04	inactive: 0.012	inactive: 0.037	inactive: 0.039	inactive: -0.038	inactive: -0.002	inactive: 0.062	inactive: -0.012	inactive: 0.082	inactive: 0.013	inactive: -0.028	inactive: -0.03	inactive: -0.004	inactive: -0.041	inactive: 0.036
PAPOLA (UniProt P51003)	inactive: 0.002	inactive: -0.007	inactive: -0.01	inactive: -0.016	inactive: -0.003	inactive: -0.004	inactive: 0.006	inactive: -0.036	inactive: 0.006	inactive: 0.017	inactive: 0.003	inactive: -0.005	inactive: 0.008	inactive: 0.046	inactive: 0.01	inactive: -0.02	inactive: -0.015	inactive: 0.039	inactive: -0.002	inactive: 0.013
PAAF1 (UniProt Q9BRP4)	inactive: 0.014	inactive: 0.001	inactive: 0.004	inactive: -0.007	inactive: -0.037	inactive: 0.014	inactive: 0.018	inactive: 0.041	inactive: -0.019	inactive: 0	inactive: 0.021	inactive: 0.006	inactive: -0.04	inactive: 0.04	inactive: -0.002	inactive: 0.011	inactive: -0.068	inactive: 0.072	inactive: 0.014	inactive: -0.016
PARL (UniProt Q9H300)	inactive: -0.012	inactive: 0.006	inactive: 0.019	inactive: -0.051	inactive: -0.013	inactive: 0.017	inactive: 0.034	inactive: 0.033	inactive: 0.027	inactive: 0.004	inactive: 0.004	inactive: 0.033	inactive: 0.048	inactive: -0.012	inactive: 0.012	inactive: -0.012	inactive: -0.047	inactive: -0.026	inactive: -0.024	inactive: -0.02

Complete entries as entered above. Values in the order: log2 fold change (ibrutinib)	log2 fold change [1]	log2 fold change (ralimetinib)	log2 fold change [2]	log2 fold change [3]	log2 fold change [4]	log2 fold change [5]	log2 fold change [6]	log2 fold change [7]	log2 fold change [8]	log2 fold change (vemurafenib)	log2 fold change [9]	log2 fold change (barasertib)	log2 fold change [10]	log2 fold change (volasertib)	log2 fold change [11]	log2 fold change [12]	log2 fold change [13]	log2 fold change (saracatinib)	log2 fold change (sotrastaurin)
PAFAH1B3 (UniProt Q15102) in the list: inactive: 0.073	inactive: -0.004	inactive: 0.003	inactive: -0.01	inactive: 0.015	inactive: -0.026	inactive: 0.014	inactive: -0.002	inactive: 0.02	inactive: 0.006	inactive: -0.008	inactive: 0.002	inactive: 0.119	inactive: -0.061	inactive: -0.067	inactive: 0.031	inactive: -0.04	inactive: -0.021	inactive: 0.013	inactive: -0.009
OCRL (UniProt Q01968) in the list: inactive: 0.051	inactive: -0.038	inactive: -0.016	inactive: 0.016	inactive: 0.044	inactive: 0.013	inactive: 0.036	inactive: 0.022	inactive: -0.002	inactive: 0.033	inactive: 0.168	inactive: 0.014	inactive: 0.04	inactive: 0.018	inactive: -0.057	inactive: -0.032	inactive: -0.074	inactive: 0.049	inactive: 0.027	inactive: 0.019
